{"source": "patent US20210177881A1", "about": "“MEDICAMENT FOR PREVENTING AND/OR TREATING PAIN AND/OR FEVER, COMPOSITE PRODUCT AND USE THEREOF” (SHANGHAI TONGLIAN PHARMACEUTICAL CO., LTD., priority 2018, published 2021)", "system": "mice", "assay": "Analgesia experiment on a hot plate in mice", "assay_type": "in vivo, Kunming mice", "conditions": "15 mg/kg", "description": "The mouse hot plate method is a classic method for screening analgesics. Its principle is to put the mouse on a hot plate heated to a constant temperature of (55±0.1 DEG C.) in advance, and when the foot of the mouse is stimulated by the hot plate to produce pain, the time required for foot licking is taken as the pain threshold, which is taken as the observation index, and the changes of threshold before and after medication are compared to evaluate the analgesic effect.\nBefore the experiment, the mice in each group were given intragastric administration. The mice in the blank control group were given the same volume of normal saline every day for 3 consecutive days.\nThe mice were put on a hot plate pain meter heated to 55 DEG C. in advance, and the time from putting into the hot plate to licking hind feet was recorded with a stopwatch as the pain threshold of the mice. […] It was measured once at 30, 60, 90 and 120 min after administration. After the end of the experiment, the percentage of pain threshold increase was calculated according to the measured average value of pain threshold. The percentage of pain threshold increase %=(an average pain threshold after administration−an average pain threshold before administration)÷the average pain threshold before administration×100%."}
{"smiles": "CN1CC[C@]23c4c5ccc(O)c4O[C@H]2[C@@H](O)C=C[C@H]3[C@H]1C5.Cl", "note": "[positive control, morphine hydrochloride]", "values": [{"measurement": "time to lick hind feet after administration", "setting": "30 min", "value": "31.84 ± 7.17", "unit": "s"}, {"measurement": "time to lick hind feet after administration", "setting": "60 min", "value": "29.17 ± 6.17", "unit": "s"}, {"measurement": "time to lick hind feet after administration", "setting": "90 min", "value": "28.77 ± 6.71", "unit": "s"}, {"measurement": "time to lick hind feet after administration", "setting": "120 min", "value": "26.17 ± 5.14", "unit": "s"}]}
